Data: PMC4019565
Results are given in words; binding and its absence hold for the method and conditions named. In cells and extracts the contact can be indirect. These calls come from enrichment with a bait or labelling near it, and not all partners need be listed.

Chains of the proteins cited; added tags and fusions are not shown. Lines headed by an entry give the natural chain unless they say otherwise; changes in a name come on top.
UniProt Q92688: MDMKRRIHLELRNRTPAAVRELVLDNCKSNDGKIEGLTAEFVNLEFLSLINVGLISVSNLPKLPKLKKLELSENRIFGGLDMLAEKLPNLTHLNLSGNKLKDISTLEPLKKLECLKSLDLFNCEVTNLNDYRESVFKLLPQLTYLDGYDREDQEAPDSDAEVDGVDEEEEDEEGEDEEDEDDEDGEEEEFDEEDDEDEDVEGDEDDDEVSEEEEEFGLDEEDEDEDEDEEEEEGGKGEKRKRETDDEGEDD

How the values were obtained:
Experiment in all cases: affinity purification with mass spectrometry
[1] = target: C-Strep HeV M (Hendra virus matrix protein with C-terminal Strep-tag II) (Hendra virus) (UniProt O89341)
[2] = target: N-Strep HeV M (Hendra virus matrix protein with N-terminal Strep-tag II) (Hendra virus) (UniProt O89341)
[3] = target: Strep-ANP32B (N-terminally Strep-tagged ANP32B) (human) (UniProt Q92688)

Row | Substance | binding [1] | binding [2] | binding [3]
1 | acidic leucine-rich nuclear phosphoprotein 32 family member B (ANP32B), endogenous (from UniProt Q92688-1 1-251) | binds | binds | 
2 | untagged HeV M (Hendra virus matrix protein) (from UniProt O89341 1-352) |  |  | binds
